Values quoted from earlier work in US7635722B1, “Chemical induced intracellular hyperthermia” (priority 1998, dated 2009).
Some of these results come from one statement about several compounds together.

System: Borrelia burgdorferi
Settings: elevation of temperature from 36° C. to 38° C.; cited from earlier work

## CO/N=C(\C(=O)N[C@@H]1C(=O)N2C(C(=O)O)=C(CSc3nc(=O)c(=O)[nH]n3C)CS[C@H]12)c1csc(N)n1 [ceftriaxone]
  increase in susceptibility of all strains of Borrelia burgdorferi: up to 16 fold

## penicillin
  increase in susceptibility of all strains of Borrelia burgdorferi: up to 16 fold
